According to paper PMC10397244:
These are yes or no findings as the source states them, for the method shown. In cells and extracts the contact can be indirect. Some binding calls cover weakened binding; strength is not graded here. Tags and fused reporters may be left off the sequences shown.

T1: BIK1 (expressed in Arabidopsis protoplasts or in vivo; tag of the experiment not told) (Arabidopsis thaliana) (UniProt O48814)
T1 sequence: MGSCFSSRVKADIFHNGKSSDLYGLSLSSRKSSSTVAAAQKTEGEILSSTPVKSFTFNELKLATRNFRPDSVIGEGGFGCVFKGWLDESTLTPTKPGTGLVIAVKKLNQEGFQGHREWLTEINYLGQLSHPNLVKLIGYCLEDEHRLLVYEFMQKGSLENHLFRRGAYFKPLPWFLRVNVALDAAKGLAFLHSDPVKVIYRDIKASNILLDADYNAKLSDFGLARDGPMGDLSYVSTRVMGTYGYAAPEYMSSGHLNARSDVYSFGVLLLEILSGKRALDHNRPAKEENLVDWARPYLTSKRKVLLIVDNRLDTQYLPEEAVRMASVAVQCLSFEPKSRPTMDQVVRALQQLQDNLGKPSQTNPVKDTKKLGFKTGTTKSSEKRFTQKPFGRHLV

T2: PUB25-nYFP (Arabidopsis thaliana) (UniProt Q9LT79)
T2 sequence: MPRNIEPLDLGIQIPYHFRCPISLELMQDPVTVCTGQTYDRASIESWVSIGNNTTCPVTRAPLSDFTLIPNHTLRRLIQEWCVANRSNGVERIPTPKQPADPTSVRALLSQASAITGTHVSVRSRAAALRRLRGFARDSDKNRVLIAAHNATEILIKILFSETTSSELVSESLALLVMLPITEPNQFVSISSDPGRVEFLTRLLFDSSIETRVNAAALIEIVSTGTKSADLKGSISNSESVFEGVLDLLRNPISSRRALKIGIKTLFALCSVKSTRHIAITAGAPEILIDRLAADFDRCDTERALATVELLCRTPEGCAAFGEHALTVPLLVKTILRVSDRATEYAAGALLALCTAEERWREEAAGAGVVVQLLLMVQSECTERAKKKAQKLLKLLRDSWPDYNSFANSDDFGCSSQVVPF

T3: BIK1-nYFP (Arabidopsis thaliana) (UniProt O48814)
T3 sequence: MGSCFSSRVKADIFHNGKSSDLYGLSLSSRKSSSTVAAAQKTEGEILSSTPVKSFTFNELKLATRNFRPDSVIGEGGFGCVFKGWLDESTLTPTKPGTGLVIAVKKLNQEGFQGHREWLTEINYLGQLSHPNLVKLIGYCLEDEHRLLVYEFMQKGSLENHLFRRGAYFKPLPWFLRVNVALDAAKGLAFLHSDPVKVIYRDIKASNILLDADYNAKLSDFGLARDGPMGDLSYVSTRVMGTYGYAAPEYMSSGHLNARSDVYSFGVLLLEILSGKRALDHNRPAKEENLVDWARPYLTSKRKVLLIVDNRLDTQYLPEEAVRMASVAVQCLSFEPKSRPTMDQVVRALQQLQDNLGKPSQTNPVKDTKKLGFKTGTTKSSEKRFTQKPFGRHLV

T4: BIK1-CLuc (Arabidopsis thaliana) (UniProt O48814)
T4 sequence: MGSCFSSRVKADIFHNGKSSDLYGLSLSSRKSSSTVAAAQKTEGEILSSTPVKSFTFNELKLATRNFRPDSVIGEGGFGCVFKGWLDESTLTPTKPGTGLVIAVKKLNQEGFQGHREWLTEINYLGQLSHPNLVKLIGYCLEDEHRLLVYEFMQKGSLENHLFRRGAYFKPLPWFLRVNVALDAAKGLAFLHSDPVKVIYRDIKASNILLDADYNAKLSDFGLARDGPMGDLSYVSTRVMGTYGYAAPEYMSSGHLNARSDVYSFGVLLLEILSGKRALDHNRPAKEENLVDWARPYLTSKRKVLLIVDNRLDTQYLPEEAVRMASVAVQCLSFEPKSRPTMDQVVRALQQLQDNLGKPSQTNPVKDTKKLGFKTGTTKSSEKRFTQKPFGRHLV


What was measured:
[1] = molecular target: T1, BIK1 (expressed in Arabidopsis protoplasts or in vivo; tag of the experiment not told) (Arabidopsis thaliana); experiment: co-IP; Arabidopsis protoplasts co-transfected with pHBT plasmids, 10 h; with or without 2.5 uM flg22 for 30 min (some with MG132; Col-0, bak1 or rglg1 rglg2 protoplasts); IP with anti-FLAG antibodies and protein G agarose, 4 C; 10 mM HEPES pH 7.5, 100 mM NaCl, 0.5% Triton X-100
[2] = molecular target: T2, PUB25-nYFP (Arabidopsis thaliana); experiment: split reporter; BiFC: nYFP and cYFP fusions transfected into Arabidopsis protoplasts, confocal microscopy
[3] = molecular target: T3, BIK1-nYFP (Arabidopsis thaliana); experiment: as above
[4] = molecular target: T4, BIK1-CLuc (Arabidopsis thaliana); experiment: split reporter; split-luciferase complementation; CLuc and NLuc fusions co-infiltrated into N. benthamiana leaves, luminescence two days later; with or without 5 uM flg22 for 30 min

binding [1]	binding [4]	Binder	other results
no binding	–	RGLG3 (expressed in Arabidopsis protoplasts; tag not told) (protein, UniProt Q8RX26 1-367) MNMSNKRNQQPSYIADHFSSLDQVITSLREAGLESSNLILGIDFTKSNEWTGRYSFNRKSLHAIGKRQNPYEKAISIIGRTLSPFDEDDLIPCFGFGDVTTRDQYVFSFYPENKSCDGLENAVKRYREIVPHLKLSGPTSFAPVIDAAINIVEQNNMQYHVLVIIADGQVTRNPDVPLGRLSPQEEATMNSIMAASHYPLSIVLVGVGDGPWDTMKQFDDNIPHREFDNFQFVNFTKIMSEHKDAAKKEAAFALAALMEIPFQYKATLSLNRKPVRSSHQHHKPLPPPPEVIERDNAVRSVPNQMTETAEKSDRLAPSTVPVCPICLTNPKDMAFSCGHTTCKECGVVITTCPLCRQPITTRIRLYT	–
–	–	RGLG3-cYFP (protein, UniProt Q8RX26 1-367) MNMSNKRNQQPSYIADHFSSLDQVITSLREAGLESSNLILGIDFTKSNEWTGRYSFNRKSLHAIGKRQNPYEKAISIIGRTLSPFDEDDLIPCFGFGDVTTRDQYVFSFYPENKSCDGLENAVKRYREIVPHLKLSGPTSFAPVIDAAINIVEQNNMQYHVLVIIADGQVTRNPDVPLGRLSPQEEATMNSIMAASHYPLSIVLVGVGDGPWDTMKQFDDNIPHREFDNFQFVNFTKIMSEHKDAAKKEAAFALAALMEIPFQYKATLSLNRKPVRSSHQHHKPLPPPPEVIERDNAVRSVPNQMTETAEKSDRLAPSTVPVCPICLTNPKDMAFSCGHTTCKECGVVITTCPLCRQPITTRIRLYT	binding [2]: no binding; binding [3]: no binding
–	binds	RGLG1-NLuc (protein, UniProt Q9SS90 1-489) MGGGNSKEESSSPSSSSWASHQSYPQYGPDSYNYPPPPTYAPAPSPAPAPAPVPAPSPASSYGPQYSQEGYASQPNNPPPPTYAPAPSPASSYGHQYSQEGYASAASQPNYPPPPSQSQVADRKKFDRRYSKISDNYSSLLQVSEALGRAGLESSNLIVGIDFTKSNEWTGAKSFNRKSLHHLSNTPNPYEQAITIIGRTLAAFDEDNLIPCYGFGDASTHDQDVFSFYPEGRFCNGFEEVLARYREIVPQLKLAGPTSFAPIIEMAMTVVEQSSGQYHVLVIIADGQVTRSVDTEHGRLSPQEQKTVDAIVKASTLPLSIVLVGVGDGPWDMMQEFDDNIPARAFDNFQFVNFTEIMSKNKDQSRKETEFALSALMEIPPQYKATIELNLLGVRNGNIPQRIPLPPPVQSGSSFSSSRIPNFEPSVPPYPFESKQMSSADDIQLCPICLSNPKNMAFGCGHQTCCECGPDLKVCPICRAPIQTRIKLY	–
–	binds	ATL32-NLuc (protein, UniProt Q8W571 29-323) QSFSPSPPDLQTGHTPSKTTVFAVLVTLFFLTGLLSVYIRHCARSNPDSSTRYFRNRANDGSSRRGGLDNAVVESFPVFAYSSVKESKIGSKDLECAICLNELEDHETVRLLPICNHLFHIDCIDTWLYSHATCPVCRSNLTAKSNKPGDEDDGVPLAAMRDHVVVDIETVEVAKSHHRRLSSEISGKFPRSNSTGHSMDRFSDGTERFTLRLPDDVKMRLMAVKGRRLKRTRSFDVDLTAEHYCRSGEESSNTIGSGAKSGRVNWPDRWGLTLFVSKSNSGSVRSQKSNGEPLK	–
binds	–	ATL6 (expressed in Arabidopsis protoplasts; tag not told) (protein, UniProt Q8RXX9 30-398) QSQPGPTNQPYNYGRLSPAMAVIVVILIAALFFMGFFSIYFRHCSGVPDAGVSPAGGARSRATVNAAARGLDVSVVETFPTFLYSDVKTQKLGKGELECAICLNEFEDDETLRLLPKCDHVFHPHCIDAWLEAHVTCPVCRANLAEQVAEGESVEPGGTEPDLELQQVVVNPEPVVTAPVPEQLVTSEVDSRRLPGVPVDLKRVKFSRSHTTGHSVVQPGECTERFTLRLPEDVRKRIMKDWKLNRTNSLLVLPRGGSSRRGKPIDRSRARSDRWLFRKTPSFLWRSRDDGSIRLGATGSVRASAVPNSTGSDSVRAGDRWAFLRNASFLWRNSSVHVPRGGVNKDGEGTSVKSTGASGSTSGSVRLPV	–
–	binds	ATL6-NLuc (protein, UniProt Q8RXX9 30-398) QSQPGPTNQPYNYGRLSPAMAVIVVILIAALFFMGFFSIYFRHCSGVPDAGVSPAGGARSRATVNAAARGLDVSVVETFPTFLYSDVKTQKLGKGELECAICLNEFEDDETLRLLPKCDHVFHPHCIDAWLEAHVTCPVCRANLAEQVAEGESVEPGGTEPDLELQQVVVNPEPVVTAPVPEQLVTSEVDSRRLPGVPVDLKRVKFSRSHTTGHSVVQPGECTERFTLRLPEDVRKRIMKDWKLNRTNSLLVLPRGGSSRRGKPIDRSRARSDRWLFRKTPSFLWRSRDDGSIRLGATGSVRASAVPNSTGSDSVRAGDRWAFLRNASFLWRNSSVHVPRGGVNKDGEGTSVKSTGASGSTSGSVRLPV	–
binds	–	PUB25 (co-IP with BIK1; tag not told) (protein, UniProt Q9LT79 1-421) MPRNIEPLDLGIQIPYHFRCPISLELMQDPVTVCTGQTYDRASIESWVSIGNNTTCPVTRAPLSDFTLIPNHTLRRLIQEWCVANRSNGVERIPTPKQPADPTSVRALLSQASAITGTHVSVRSRAAALRRLRGFARDSDKNRVLIAAHNATEILIKILFSETTSSELVSESLALLVMLPITEPNQFVSISSDPGRVEFLTRLLFDSSIETRVNAAALIEIVSTGTKSADLKGSISNSESVFEGVLDLLRNPISSRRALKIGIKTLFALCSVKSTRHIAITAGAPEILIDRLAADFDRCDTERALATVELLCRTPEGCAAFGEHALTVPLLVKTILRVSDRATEYAAGALLALCTAEERWREEAAGAGVVVQLLLMVQSECTERAKKKAQKLLKLLRDSWPDYNSFANSDDFGCSSQVVPF	–
–	binds	ATL40-NLuc (protein, UniProt Q9SLC4 1-217) MSSNNKTDDSDDRSFWQNSTSYDASSKIFLVTTVSFSIIIIIVFVYYLYAKFVLHRRSAFQDLSFSVVSQPPKRGLDSLVIASLPTFVVGIKNDVAGTECAVCLSLLEEKDNARMLPNCKHVFHVSCVDTWLTTQSTCPVCRTEAEPSHPRLEPEPREGPVGDFAPPLDFAGVDNKTGGSSVSRLDSFRRILTRERSSNRRDHSRVDQDRELDIERQ	–
binds	–	ATL80 (expressed in Arabidopsis protoplasts; tag not told) (protein, UniProt Q9LM69 1-197) MARLLFRLLVESNTPSPAIDNSTAALNSDLVVILAALLCALICVLGLIAVSRCVWLRRLAAGNRTVSGSQTQSPQPPVAAANKGLKKKVLQSLPKLTFSPESPESEKFAECAICLAEFSAGDELRVLPQCGHGFHVACIDTWLGSHSSCPSCRQILVVARCHKCGGLPGSSSSGLESEPEIEIRIKQGEDDPNSFLP	–
–	binds	ATL80-NLuc (protein, UniProt Q9LM69 1-197) MARLLFRLLVESNTPSPAIDNSTAALNSDLVVILAALLCALICVLGLIAVSRCVWLRRLAAGNRTVSGSQTQSPQPPVAAANKGLKKKVLQSLPKLTFSPESPESEKFAECAICLAEFSAGDELRVLPQCGHGFHVACIDTWLGSHSSCPSCRQILVVARCHKCGGLPGSSSSGLESEPEIEIRIKQGEDDPNSFLP	–
